Assay results reported in the supplement of paper PMC6143611.
Structures can show the parent of a compound that is named as a salt. ± gives the uncertainty stated by the source. This is one part of the list. Baselines shift from plate to plate; read single values as rough.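 At 6 dpf, larvae had a heat-shock-induced fluorescent stripe placed in rod outer segments; shedding distance, from stripe to outer segment tip, was measured in confocal stacks, roughly three fish per compound. Controls received 0.2% DMSO vehicle; compounds were flagged for ≥20% change versus same-week control and p < 0.001 (Dunnett test, mixed-effects models).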

Experiments:
[1] = tested on: Danio rerio larva rod photoreceptor outer segment; experiment: rod outer segment growth distance Dg, difference from same-week DMSO control mean; higher = more outer segment growth; details: 20 µM; treatment time: 4 days (6-10 dpf)
[2] = tested on: Danio rerio larva rod photoreceptor outer segment; experiment: rod outer segment shedding distance Ds, difference from same-week DMSO control mean; higher = less outer segment shedding; details: 20 µM; treatment time: 4 days (6-10 dpf)

SMILES | rod outer segment growth distance Dg [1] | rod outer segment shedding distance Ds [2]
CN1CCC(c2c[nH]c3ccc(O)cc23)CC1 | 0.79 ± 0.17 um | -0.58 ± 0.13 um
CN1[C@@H]2CC(O)C[C@H]1[C@@H]1O[C@@H]12 (stereo partly specified) [Scopine HCl] | -0.39 ± 0.24 um | -0.65 ± 0.15 um
CN1c2ccccc2C(NCCCCCCC(=O)O)c2ccc(Cl)cc2S1(=O)=O (stereo unspecified) [Tianeptine sodium] | -0.3 ± 0.17 um | 0.05 ± 0.19 um
C[C@]12CC[C@H]3[C@@H](CC[C@@]45O[C@@H]4C(O)=C(C#N)C[C@]35C)[C@@H]1CC[C@@H]2O [Trilostane] | 0.07 ± 0.15 um | 0.37 ± 0.2 um
Cc1cccc(C)c1NC1=NCCCS1 [Xylazine HCl] | -0.43 ± 0.23 um | 0.26 ± 0.32 um
CN(C)[C@@H]1C(=O)C(C(N)=O)=C(O)[C@@]2(O)C(=O)C3=C(O)c4c(O)cccc4[C@@](C)(O)[C@H]3C[C@@H]12 [Tetracycline HCl] | 0.48 ± 0.29 um | -0.14 ± 0.16 um
CN1[C@@H]2C[C@@H](OC(=O)[C@H](CO)c3ccccc3)C[C@H]1[C@@H]1O[C@@H]12 [Scopolamine HBr] | 0.12 ± 0.23 um | -0.31 ± 0.33 um
O=P1(N(CCCl)CCCl)NCCCO1 (stereo unspecified) [Cyclophosphamide] | -0.09 ± 0.21 um | -0.48 ± 0.23 um
CC1C=CC=CCCC=CC=CC=CC=CC(OC2OC(C)C(O)C(N)C2O)CC2OC(O)(CC(O)C(O)CCC(O)CC(O)CC(O)CC(=O)OC(C)C(C)C1O)CC(O)C2C(=O)O (stereo unspecified) [Nystatin (Fungicidin)] | -0.53 ± 0.27 um | -1.41 ± 0.32 um
CC[C@@H](C(N)=O)N1CCCC1=O [Levetiracetam] | 0.46 ± 0.31 um | 0.3 ± 0.19 um
COc1ccc(C(=O)N2CCCC2=O)cc1 [Aniracetam] | -0.38 ± 0.14 um | -0.31 ± 0.18 um
O=C(Oc1ccc([N+](=O)[O-])cc1)N1CCC(C(O)(c2ccc3c(c2)OCO3)c2ccc3c(c2)OCO3)CC1 | 0.63 ± 0.15 um | -0.07 ± 0.12 um
O=C(O)CNC(=O)c1c(O)c2ccccc2n(Cc2ccccc2)c1=O | -1.11 ± 0.17 um | -0.18 ± 0.12 um
O=C1CCC[C@@H]2[C@H]3CCCN4CCC[C@@H](CN12)[C@@H]34 [(+)-Matrine] | -0.7 ± 0.33 um | 0.19 ± 0.32 um
CCC(COC(=O)c1cc(OC)c(OC)c(OC)c1)(c1ccccc1)N(C)C (stereo unspecified) [Trimebutine] | -0.44 ± 0.2 um | -0.66 ± 0.22 um
C=C1C[C@@H]2[C@H](CC[C@]3(C)C(=O)CC[C@@H]23)[C@@]2(C)C=CC(=O)C=C12 [Exemestane] | -1.24 ± 0.19 um | -1.86 ± 0.27 um
O=c1ccc2cc(O[C@@H]3O[C@H](CO)[C@@H](O)[C@H](O)[C@H]3O)c(O)cc2o1 [Esculin] | 0.41 ± 0.25 um | -0.46 ± 0.37 um
CNCC(O)c1ccc(O)cc1 (stereo unspecified) [Synephrine HCl] | -0.06 ± 0.24 um | 0.45 ± 0.28 um
CCN1CCN(C(=O)Cc2ccc(Nc3ncc(F)c(Nc4ccc(C(=O)Nc5ccccc5Cl)cc4)n3)cc2)CC1 [Aurora A Inhibitor I] | -0.64 ± 0.15 um | 0.24 ± 0.18 um
O=C1CC[C@@]2(O)[C@H]3Cc4ccc(O)c5c4[C@@]2(CCN3CC2CC2)[C@H]1O5 [Naltrexone HCl] | 0.99 ± 0.23 um | -0.19 ± 0.24 um
O=[N+]([O-])c1ncc[nH]1 [Azomycin] | 0.49 ± 0.23 um | 0.42 ± 0.37 um
CCc1c(C(=O)C(N)=O)c2c(OCC(=O)O)cccc2n1Cc1ccccc1 | -0.82 ± 0.17 um | -0.24 ± 0.28 um
CN1C(=O)CCS(=O)(=O)C1c1ccc(Cl)cc1 (stereo unspecified) [Chlormezanone] | -0.32 ± 0.26 um | -1.35 ± 0.32 um
CCN(CC)C(=O)c1ccc(C2=CC3(CCNCC3)Oc3cccc(O)c32)cc1 | -1.58 ± 0.15 um | -0.22 ± 0.18 um
CC[C@@H]1[C@@H](C)O[C@@](O)([C@@H](C)[C@H](O)[C@H](C)[C@H]2OC(=O)/C=C/C=C/[C@H](C)[C@@H]([C@@H](C)[C@@H](O)[C@H](C)[C@@]3(O)C[C@@H](O[C@H]4C[C@H](O)[C@H](O)[C@H](C)O4)[C@H](CC)[C@@H](C)O3)OC(=O)/C=C/C=C/[C@@H]2C)C[C@H]1O[C@H]1C[C@H](O)[C@H](O)[C@H](C)O1 [Elaiophylin] | -1.18 ± 0.18 um | -0.38 ± 0.17 um
CN1[C@@H]2CC(O)C[C@H]1[C@@H]1O[C@@H]12 (stereo partly specified) [Scopine] | 0.08 ± 0.25 um | -0.6 ± 0.16 um
COc1cc(OC)c(OC)cc1C=O [Asaraldehyde] | -0.75 ± 0.2 um | -0.43 ± 0.18 um

For convenience, part of the list above:
SMILES | rod outer segment growth distance Dg [1] | rod outer segment shedding distance Ds [2]
O=C1CC[C@@]2(O)[C@H]3Cc4ccc(O)c5c4[C@@]2(CCN3CC2CC2)[C@H]1O5 [Naltrexone HCl] | 0.99 ± 0.23 um | -0.19 ± 0.24 um
O=[N+]([O-])c1ncc[nH]1 [Azomycin] | 0.49 ± 0.23 um | 0.42 ± 0.37 um
CCc1c(C(=O)C(N)=O)c2c(OCC(=O)O)cccc2n1Cc1ccccc1 | -0.82 ± 0.17 um | -0.24 ± 0.28 um

Later entries

SMILES | rod outer segment growth distance Dg [1] | rod outer segment shedding distance Ds [2]
Cc1cccc(C)c1NC(=O)CN1CCCC1=O [Nefiracetam] | 1.09 ± 0.29 um | 0.74 ± 0.28 um
CN(C)C(=O)Oc1ccc[n+](C)c1 [Pyridostigmine Bromide] | 1.17 ± 0.15 um | 0.12 ± 0.12 um
Cc1c(N)nc(C(CC(N)=O)NCC(N)C(N)=O)nc1C(=O)NC(C(=O)NC(C)C(O)C(C)C(=O)NC(C(=O)NCCc1nc(-c2nc(C(=O)NCCC[S+](C)C)cs2)cs1)C(C)O)C(O[C@@H]1O[C@@H](CO)[C@@H](O)[C@H](O)[C@@H]1O[C@H]1O[C@H](CO)[C@@H](O)[C@H](OC(N)=O)[C@@H]1O)c1cnc[nH]1 (stereo partly specified) [Bleomycin Sulfate] | 0.15 ± 0.19 um | -0.64 ± 0.2 um
CC(C)N(CCNC(=O)CN1CCCC1=O)C(C)C [Pramiracetam] | 0.06 ± 0.23 um | -0.85 ± 0.15 um
CN(C)Cc1c[nH]c2ccccc12 [Gramine] | 0.68 ± 0.27 um | 0.55 ± 0.28 um
O=S(=O)(F)Cc1ccccc1 | -0.2 ± 0.15 um | 0.71 ± 0.15 um
COc1ccc(C(CN(C)C)C2(O)CCCCC2)cc1 (stereo unspecified) [Venlafaxine] | 0.42 ± 0.17 um | -0.42 ± 0.2 um
C[C@@]12N[C@@H](Cc3ccccc31)c1ccccc12 [(-)-MK 801 Maleate] | -2.24 ± 0.29 um | -0.87 ± 0.17 um
CC1(C)CC(O)CC(C)(C)N1[O] [Tempol] | -0.81 ± 0.18 um | -0.28 ± 0.13 um
CC(NC(C)(C)C)C(=O)c1cccc(Cl)c1 (stereo unspecified) [Amfebutamone HCl] | -0.96 ± 0.23 um | 0.32 ± 0.27 um
CC(=O)OCC1=C(C(=O)O)N2C(=O)[C@@H](N)[C@H]2SC1 [7-Aminocephalosporanic acid] | -0.11 ± 0.21 um | -0.25 ± 0.19 um
O=c1cccc2n1C[C@@H]1CNC[C@H]2C1 [Cytisine] | -0.54 ± 0.34 um | -0.43 ± 0.31 um
C[C@@H]1CC[C@H]2[C@@H](C)C(=O)O[C@@H]3O[C@@]4(C)CC[C@@H]1[C@]32OO4 [Artemisinin] | -0.65 ± 0.15 um | -0.08 ± 0.19 um
Cn1c(CCCC(=O)O)nc2cc(N(CCCl)CCCl)ccc21 [Bendamustine HCl] | 0.38 ± 0.18 um | -0.73 ± 0.2 um
Cc1cc(C(=O)CN2CCCC2)c(C)n1-c1ccc(F)cc1 | -0.77 ± 0.21 um | -0.64 ± 0.24 um
CC(O)(CS(=O)(=O)c1ccc(F)cc1)C(=O)Nc1ccc(C#N)c(C(F)(F)F)c1 (stereo unspecified) [Bicalutamide] | -0.38 ± 0.16 um | -1.53 ± 0.25 um
CNCC(O)c1ccc(O)cc1 (stereo unspecified) [Synephrine] | 0.17 ± 0.21 um | -0.36 ± 0.34 um
CN(C)[C@@H]1C(=O)C(C(N)=O)=C(O)[C@@]2(O)C(=O)C3=C(O)c4c(O)cccc4[C@@](C)(O)[C@H]3[C@H](O)[C@@H]12 [Oxytetracycline (Terramycin)] | -0.96 ± 0.21 um | -0.16 ± 0.12 um
CN1[C@@H]2CC[C@H]1C[C@@H](OC(=O)C(CO)c1ccccc1)C2 (stereo partly specified) [Atropine] | 0.71 ± 0.26 um | -0.16 ± 0.35 um
O=C(NCC1CCOCC1)c1cnc(Nc2ccc(Cl)cc2Cl)nc1C(F)(F)F | 0.52 ± 0.15 um | 0.02 ± 0.13 um
N.N.[Cl][Pt][Cl] [Cisplatin] | -0.47 ± 0.17 um | -0.03 ± 0.18 um
C[C@]12N[C@H](Cc3ccccc31)c1ccccc12 [MK-801 (Dizocilpine)] | -0.1 ± 0.19 um | -0.65 ± 0.14 um
C[N+]1(C)[C@@H]2C[C@@H](OC(=O)[C@H](CO)c3ccccc3)C[C@H]1[C@@H]1O[C@@H]12 [Methscopolamine] | 0.48 ± 0.28 um | 0.38 ± 0.22 um
C[C@]12CCC(=O)C(O)=C1CC[C@@H]1[C@@H]2CC[C@]2(C)C(=O)CC[C@@H]12 [Formestane] | -0.1 ± 0.24 um | 0.06 ± 0.31 um
Cc1ccccc1-n1c(Cn2ncc3c(N)ncnc32)nc2cccc(C)c2c1=O | 0.31 ± 0.28 um | -0.13 ± 0.33 um
O=P1(NCCCl)OCCCN1CCCl (stereo unspecified) [Ifosfamide] | 0.7 ± 0.18 um | -0.15 ± 0.15 um
